Assay results: paper PMC5760533
These are yes or no findings as the source states them, for the method shown. Some entries that bind do so weakly or less than the wild type.

B1: human RFX1, in vitro translated (protein, UniProt P22670 1-979)
chain: MATQAYTELQAAPPPSQPPQAPPQAQPQPPPPPPPAAPQPPQPPTAAATPQPQYVTELQSPQPQAQPPGGQKQYVTELPAVPAPSQPTGAPTPSPAPQQYIVVTVSEGAMRASETVSEASPGSTASQTGVPTQVVQQVQGTQQRLLVQTSVQAKPGHVSPLQLTNIQVPQQALPTQRLVVQSAAPGSKGGQVSLTVHGTQQVHSPPEQSPVQANSSSSKTAGAPTGTVPQQLQVHGVQQSVPVTQERSVVQATPQAPKPGPVQPLTVQGLQPVHVAQEVQQLQQVPVPHVYSSQVQYVEGGDASYTASAIRSSTYSYPETPLYTQTASTSYYEAAGTATQVSTPATSQAVASSGSMPMYVSGSQVVASSTSTGAGASNSSGGGGSGGGGGGGGGGGGGGSGSTGGGGSGAGTYVIQGGYMLGSASQSYSHTTRASPATVQWLLDNYETAEGVSLPRSTLYCHYLLHCQEQKLEPVNAASFGKLIRSVFMGLRTRRLGTRGNSKYHYYGLRIKASSPLLRLMEDQQHMAMRGQPFSQKQRLKPIQKMEGMTNGVAVGQQPSTGLSDISAQVQQYQQFLDASRSLPDFTELDLQGKVLPEGVGPGDIKAFQVLYREHCEAIVDVMVNLQFTLVETLWKTFWRYNLSQPSEAPPLAVHDEAEKRLPKAILVLLSKFEPVLQWTKHCDNVLYQGLVEILIPDVLRPIPSALTQAIRNFAKSLESWLTHAMVNIPEEMLRVKVAAAGAFAQTLRRYTSLNHLAQAARAVLQNTAQINQMLSDLNRVDFANVQEQASWVCRCEDRVVQRLEQDFKVTLQQQNSLEQWAAWLDGVVSQVLKPYQGSAGFPKAAKLFLLKWSFYSSMVIRDLTLRSAASFGSFHLIRLLYDEYMYYLIEHRVAQAKGETPIAVMGEFANLATSLNPLDPDKDEEEEEEEESEDELPQDISLAAGGESPALGPETLEPPAKLARTDARGLFVQALPSS
B2: RFX1 of HEK-293 nuclear extract (protein, UniProt P22670 1-979)
chain: B1 chain
B3: human RFX3, in vitro translated (protein, UniProt P48380 1-749)
chain: MQTSETGSDTGSTVTLQTSVASQAAVPTQVVQQVPVQQQVQQVQTVQQVQHVYPAQVQYVEGSDTVYTNGAIRTTTYPYTETQMYSQNTGGNYFDTQGSSAQVTTVVSSHSMVGTGGIQMGVTGGQLISSSGGTYLIGNSMENSGHSVTHTTRASPATIEMAIETLQKSDGLSTHRSSLLNSHLQWLLDNYETAEGVSLPRSTLYNHYLRHCQEHKLDPVNAASFGKLIRSIFMGLRTRRLGTRGNSKYHYYGIRVKPDSPLNRLQEDMQYMAMRQQPMQQKQRYKPMQKVDGVADGFTGSGQQTGTSVEQTVIAQSQHHQQFLDASRALPEFGEVEISSLPDGTTFEDIKSLQSLYREHCEAILDVVVNLQFSLIEKLWQTFWRYSPSTPTDGTTITESSNLSEIESRLPKAKLITLCKHESILKWMCNCDHGMYQALVEILIPDVLRPIPSALTQAIRNFAKSLEGWLSNAMNNIPQRMIQTKVAAVSAFAQTLRRYTSLNHLAQAARAVLQNTSQINQMLSDLNRVDFANVQEQASWVCQCDDNMVQRLETDFKMTLQQQSTLEQWAAWLDNVMMQALKPYEGRPSFPKAARQFLLKWSFYSSMVIRDLTLRSAASFGSFHLIRLLYDEYMFYLVEHRVAQATGETPIAVMGEFGDLNAVSPGNLDKDEGSEVESEMDEELDDSSEPQAKREKTELSQAFPVGCMQPVLETGVQPSLLNPIHSEHIVTSTQTIRQCSATGNTYTAV
B4: RFX3 of HEK-293 nuclear extract (protein, UniProt P48380 1-749)
chain: B3 chain

How the values were obtained:
[1] = target: T1, human RFX1, in vitro translated (human) (UniProt P22670); assay: native gel or EMSA; in vitro translated RFX1, RFX3 (alone or cotranslated) with 32P-labelled X-box or D2 double-stranded oligonucleotide; 30 min at 20 °C, 20 mM Hepes pH 7.9, 60 mM KCl, 4% Ficoll, poly(dI-dC); 4% polyacrylamide gel; dimers seen as DNA-bound complexes
T1 sequence: B1 chain

[2] = target: T2, RFX1 of HEK-293 nuclear extract (human (endogenous in HEK-293)) (UniProt P22670); assay: native gel or EMSA; HEK-293 nuclear extract with 32P-labelled D2 probe; supershift with antisera against human RFX1, RFX2, RFX3, RFXANK (20 min on ice); comigration with complexes of in vitro translated proteins; complexes are DNA-bound
T2 sequence: B1 chain

[3] = target: human RFX3, in vitro translated (human) (UniProt P48380); assay: native gel or EMSA; in vitro translated RFX1, RFX3 (alone or cotranslated) with 32P-labelled X-box or D2 double-stranded oligonucleotide; 30 min at 20 °C, 20 mM Hepes pH 7.9, 60 mM KCl, 4% Ficoll, poly(dI-dC); 4% polyacrylamide gel; dimers seen as DNA-bound complexes

| Binder | binding [1] | binding [2] | binding [3] |
| --- | --- | --- | --- |
| B1 | binds |  |  |
| B2 |  | binds |  |
| B3 | binds |  | binds |
| B4 |  | binds |  |
